# Laboratory results: PubChem BioAssay AID1259289 (Sanger Institute, 2017)
# Purpose: 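Find kinases whose loss adds to targeted drugs in killing bowel cancer cells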 (primary screen)
# Cell system: human LS513 colorectal cancer cells
# Reagent: siRNA pool against human genes
# Challenge: anchor drug BYL719 at 1 µM, cetuximab at 5 µg/ml or trametinib at 10 nM, or DMSO vehicle alone; exposure time not given
# Read-out: 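Survival versus non-targeting pool for each arm averaged over replicates, robust z-score in the arm with DMSO only, and synergy scores for BYL719, cetuximab or trametinib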
# Direction: robust z-score, siRNA alone (DMSO): higher = more viable cells; strongly negative means essential; viability with DMSO vs control: higher = more viable cells; synergy score with BYL719: higher = stronger combined killing with BYL719; synergy score with cetuximab: higher = stronger combined killing with cetuximab
# Rule for the call: 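Called essential when silencing alone under DMSO gives a robust z-score below -3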
# Calls: active = essential (knock-down alone); inactive = not essential
# This is a random part of 794 deposited reagents. In the full data, 16 (2%) were called active. 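Active marks cell loss from silencing alone; drug synergy shows only in the synergy scores, not the calls.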 Viability is capped at 1. Further read-outs or replicates are left out here. No sequences are given here. Not given: the amount of reagent, the time to read-out.
target gene,"robust z-score, siRNA alone (DMSO)",viability with DMSO vs control (fraction of control),synergy score with BYL719,synergy score with cetuximab,call
GALK1,-1.05,0.771,-0.0207,-0.0356,inactive
LIMK1,0.561,1,0.422,-0.0968,inactive
CAMK1G,0.561,1,-0.102,-0.0876,inactive
MAST1,0.561,1,0.0184,-0.0382,inactive
NADK,-0.101,0.906,-0.014,-0.113,inactive
MAP4K4,0.561,1,-0.0994,-0.0175,inactive
CAMK2N1,-0.214,0.89,0.000969,0.271,inactive
CDK11B,-0.983,0.781,-0.124,-0.034,inactive
MARK1,-0.411,0.862,0.165,0.162,inactive
ERBB4,0.561,1,0.0603,0.0561,inactive
AKT3,-0.845,0.8,0.0465,0.0876,inactive
MLKL,0.561,1,-0.117,-0.096,inactive
CDK11A,-1.54,0.702,-0.171,0.145,inactive
PDGFRA,0.561,1,-0.0813,-0.0968,inactive
CDK16,0.561,1,0.145,0.132,inactive
BLK,0.561,1,-0.134,-0.0968,inactive
SCYL1,0.561,1,-0.134,-0.0968,inactive
STK38,-1.14,0.758,0.054,0.0421,inactive
CLK4,-0.0167,0.918,0.0493,-0.0683,inactive
EIF2AK3,0.355,0.971,-0.0633,-0.123,inactive
COASY,0.091,0.933,0.188,0.232,inactive
CDC42BPA,0.561,1,-0.0566,-0.0968,inactive
SRPK1,0.561,1,0.0223,-0.0968,inactive
PI4KB,0.561,1,0.00529,0.0157,inactive
WNK1,0.561,1,0.0187,-0.0645,inactive
BRWD1,0.561,1,0.151,0.0642,inactive
PSKH2,0.561,1,0.0516,0.0164,inactive
RET,0.561,1,-0.0312,-0.074,inactive
TESK1,0.561,1,-0.134,-0.0968,inactive
MAST4,0.561,1,-0.134,-0.0968,inactive
DTYMK,0.561,1,-0.134,-0.0968,inactive
AXL,0.561,1,-0.134,-0.0968,inactive
PRKG2,0.561,1,-0.0267,-0.0968,inactive
LIMK2,0.561,1,0.00649,-0.0634,inactive
IGF1R,0.561,1,-0.0549,-0.0968,inactive
CDK14,0.561,1,-0.134,-0.0968,inactive
PHKA1,0.561,1,-0.134,-0.0968,inactive
PANK3,0.561,1,-0.134,-0.0378,inactive
STAG2,0.561,1,-0.134,-0.0968,inactive
TNIK,0.561,1,-0.0859,-0.0968,inactive
THNSL1,0.561,1,-0.11,0.0389,inactive
PRAG1,-2.77,0.527,0.0357,0.124,inactive
PTK2,0.0382,0.926,0.11,0.122,inactive
MUSK,-2.3,0.594,0.0626,0.0555,inactive
LATS2,0.561,1,-0.134,-0.0968,inactive
ACSL6,0.561,1,-0.0578,-0.0968,inactive
TP53,0.561,1,-0.0662,0.0118,inactive
CDKL1,-0.527,0.846,0.0567,0.125,inactive
MOK,0.561,1,-0.134,-0.0968,inactive
PIP5K1B,0.561,1,0.000219,-0.0968,inactive
